PubChem BioAssay AID2662 (National Center for Advancing Translational Sciences (NCATS), 2010)
The campaign covered roughly 290,000 compounds. About 110 (0.038%) were called active. Inconclusive results, whose numbers are uncertain, are shown with a selection of clear calls. The call rests on the fitted dose curve; in most records, active means well fitted inhibition curve with a large enough effect in the polarisation, with a control signal flat (not every such curve was filed as active); inconclusive means small, poorly fitted or top-dose-only effect, or effect the other way, or a change in a side signal; inactive means no such curve, though single readings can be large or run the other way; the % refers to the polarisation. Potencies beside an inconclusive call are fits to weak or partial responses and may not hold up. “Side channel” marks fits to a control or component signal instead of the main read-out.

By UniProt entry, the sequences of proteins in these tests, tags left out.
UniProt Q03164, whole entry, looked up: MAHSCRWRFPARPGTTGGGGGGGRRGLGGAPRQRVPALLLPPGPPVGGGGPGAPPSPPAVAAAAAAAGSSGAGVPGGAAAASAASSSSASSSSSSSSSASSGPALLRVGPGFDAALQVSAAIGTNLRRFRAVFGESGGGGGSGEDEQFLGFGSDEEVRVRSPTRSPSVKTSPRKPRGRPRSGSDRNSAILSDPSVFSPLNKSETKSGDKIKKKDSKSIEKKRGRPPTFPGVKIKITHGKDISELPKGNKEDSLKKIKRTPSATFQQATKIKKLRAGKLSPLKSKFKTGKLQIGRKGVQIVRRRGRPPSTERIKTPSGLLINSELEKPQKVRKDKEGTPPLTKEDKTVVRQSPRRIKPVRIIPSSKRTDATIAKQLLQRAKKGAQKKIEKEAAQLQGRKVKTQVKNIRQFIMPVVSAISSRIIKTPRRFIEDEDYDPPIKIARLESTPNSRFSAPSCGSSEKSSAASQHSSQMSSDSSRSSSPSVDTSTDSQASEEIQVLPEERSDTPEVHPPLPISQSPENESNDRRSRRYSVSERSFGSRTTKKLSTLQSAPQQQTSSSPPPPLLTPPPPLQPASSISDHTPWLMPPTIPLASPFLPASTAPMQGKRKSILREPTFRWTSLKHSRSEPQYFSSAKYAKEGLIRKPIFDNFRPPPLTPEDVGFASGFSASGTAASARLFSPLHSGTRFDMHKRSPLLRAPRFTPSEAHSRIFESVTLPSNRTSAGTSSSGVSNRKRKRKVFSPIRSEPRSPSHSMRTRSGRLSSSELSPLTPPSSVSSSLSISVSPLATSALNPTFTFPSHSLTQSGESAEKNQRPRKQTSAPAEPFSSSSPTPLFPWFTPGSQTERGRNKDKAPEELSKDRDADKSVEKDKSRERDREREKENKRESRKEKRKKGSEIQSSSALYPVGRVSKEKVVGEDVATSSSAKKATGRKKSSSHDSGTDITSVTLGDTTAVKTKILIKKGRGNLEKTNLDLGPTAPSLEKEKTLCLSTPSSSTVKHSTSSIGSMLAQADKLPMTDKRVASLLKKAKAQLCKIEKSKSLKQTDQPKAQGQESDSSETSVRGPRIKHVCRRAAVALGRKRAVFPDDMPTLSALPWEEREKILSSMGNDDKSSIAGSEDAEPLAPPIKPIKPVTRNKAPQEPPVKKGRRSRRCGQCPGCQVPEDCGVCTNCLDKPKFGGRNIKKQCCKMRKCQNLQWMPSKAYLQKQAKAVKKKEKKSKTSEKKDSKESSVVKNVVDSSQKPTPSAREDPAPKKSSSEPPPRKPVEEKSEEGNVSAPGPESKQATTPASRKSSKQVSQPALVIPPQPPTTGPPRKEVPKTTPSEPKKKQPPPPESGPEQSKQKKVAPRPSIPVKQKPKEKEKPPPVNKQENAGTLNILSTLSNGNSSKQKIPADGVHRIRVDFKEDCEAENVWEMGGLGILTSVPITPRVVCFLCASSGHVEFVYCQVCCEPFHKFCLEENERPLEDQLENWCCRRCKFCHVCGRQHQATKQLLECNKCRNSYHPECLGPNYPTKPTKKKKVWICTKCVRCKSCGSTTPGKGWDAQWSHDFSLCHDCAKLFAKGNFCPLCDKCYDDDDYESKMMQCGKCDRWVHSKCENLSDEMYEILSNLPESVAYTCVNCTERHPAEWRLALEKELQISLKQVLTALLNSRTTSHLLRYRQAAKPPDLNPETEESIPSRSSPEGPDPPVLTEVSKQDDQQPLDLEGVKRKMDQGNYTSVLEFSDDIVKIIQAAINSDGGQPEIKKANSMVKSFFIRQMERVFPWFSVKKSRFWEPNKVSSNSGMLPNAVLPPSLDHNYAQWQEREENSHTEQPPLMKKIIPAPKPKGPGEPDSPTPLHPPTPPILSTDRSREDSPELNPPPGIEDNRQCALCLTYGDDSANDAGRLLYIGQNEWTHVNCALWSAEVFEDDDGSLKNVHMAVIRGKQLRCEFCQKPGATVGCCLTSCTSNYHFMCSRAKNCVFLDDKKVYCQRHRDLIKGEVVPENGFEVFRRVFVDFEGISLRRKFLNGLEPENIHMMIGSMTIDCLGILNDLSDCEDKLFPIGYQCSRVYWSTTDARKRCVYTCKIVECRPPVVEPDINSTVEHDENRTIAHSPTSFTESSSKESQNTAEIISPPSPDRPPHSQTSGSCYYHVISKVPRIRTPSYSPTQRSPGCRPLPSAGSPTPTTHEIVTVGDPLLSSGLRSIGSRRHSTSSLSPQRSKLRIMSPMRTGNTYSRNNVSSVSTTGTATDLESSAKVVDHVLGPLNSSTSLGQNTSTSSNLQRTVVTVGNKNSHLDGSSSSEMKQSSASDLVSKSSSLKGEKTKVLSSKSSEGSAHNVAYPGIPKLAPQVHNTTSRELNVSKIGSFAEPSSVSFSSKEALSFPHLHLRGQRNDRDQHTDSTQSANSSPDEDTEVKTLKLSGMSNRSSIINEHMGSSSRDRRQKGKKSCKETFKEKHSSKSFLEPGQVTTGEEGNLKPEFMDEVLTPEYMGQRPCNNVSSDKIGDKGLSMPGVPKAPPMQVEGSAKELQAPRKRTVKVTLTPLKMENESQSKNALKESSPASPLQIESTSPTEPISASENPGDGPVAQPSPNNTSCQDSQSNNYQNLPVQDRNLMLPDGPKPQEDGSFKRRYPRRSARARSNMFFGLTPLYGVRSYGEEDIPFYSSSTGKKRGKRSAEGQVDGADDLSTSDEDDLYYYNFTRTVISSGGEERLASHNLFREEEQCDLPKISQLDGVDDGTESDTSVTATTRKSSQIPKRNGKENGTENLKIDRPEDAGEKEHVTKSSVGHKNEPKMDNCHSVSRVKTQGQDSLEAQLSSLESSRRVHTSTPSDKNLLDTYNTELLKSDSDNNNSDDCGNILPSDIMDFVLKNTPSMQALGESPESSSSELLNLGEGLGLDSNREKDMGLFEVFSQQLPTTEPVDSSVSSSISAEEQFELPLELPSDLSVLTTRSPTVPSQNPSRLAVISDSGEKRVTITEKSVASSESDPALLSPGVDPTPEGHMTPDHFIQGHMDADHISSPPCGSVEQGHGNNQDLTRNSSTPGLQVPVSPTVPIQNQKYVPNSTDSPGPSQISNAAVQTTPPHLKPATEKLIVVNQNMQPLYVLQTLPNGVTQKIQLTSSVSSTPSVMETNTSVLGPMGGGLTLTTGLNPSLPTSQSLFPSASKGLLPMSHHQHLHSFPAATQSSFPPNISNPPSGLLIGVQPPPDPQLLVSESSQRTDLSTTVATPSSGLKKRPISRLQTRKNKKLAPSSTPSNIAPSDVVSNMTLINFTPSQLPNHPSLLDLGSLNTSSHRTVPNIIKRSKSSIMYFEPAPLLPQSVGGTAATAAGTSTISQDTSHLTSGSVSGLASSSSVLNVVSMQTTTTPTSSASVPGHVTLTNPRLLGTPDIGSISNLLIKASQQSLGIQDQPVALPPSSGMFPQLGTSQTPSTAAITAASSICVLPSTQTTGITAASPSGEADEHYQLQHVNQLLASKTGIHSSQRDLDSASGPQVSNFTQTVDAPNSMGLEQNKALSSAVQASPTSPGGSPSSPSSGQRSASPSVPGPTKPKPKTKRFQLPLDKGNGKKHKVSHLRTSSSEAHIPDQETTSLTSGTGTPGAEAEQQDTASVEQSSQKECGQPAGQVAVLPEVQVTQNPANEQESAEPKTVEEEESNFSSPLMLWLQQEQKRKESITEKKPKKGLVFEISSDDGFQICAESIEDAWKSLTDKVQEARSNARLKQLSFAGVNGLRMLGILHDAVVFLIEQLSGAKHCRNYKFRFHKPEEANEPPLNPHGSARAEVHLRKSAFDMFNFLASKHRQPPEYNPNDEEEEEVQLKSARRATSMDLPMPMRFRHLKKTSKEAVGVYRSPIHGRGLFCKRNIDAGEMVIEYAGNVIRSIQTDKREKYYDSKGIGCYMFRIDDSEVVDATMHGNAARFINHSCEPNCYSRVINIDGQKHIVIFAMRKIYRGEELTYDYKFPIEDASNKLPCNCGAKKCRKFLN

biological target: Histone-lysine N-methyltransferase 2A (Homo sapiens) (UniProt Q03164); assay: qHTS Fluorescence Polarization Assay for Inhibitors of MLL CXXC domain - DNA interaction; settings: MLL-CXXC / FITC-HOXA9 DNA fluorescence polarization; activity change, negative = inhibition: at 115 µM (top of the series)
Method in brief: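 Steps: dispense CXXC domain solution (7 uM) → pin compounds or unlabeled HOX-A9 DNA control → 5 min ambient → add FLSN-HOX-A9 solution (50 nM) → spin → 30 min ambient → fluorescence polarization. Tris pH 7.5/NaCl/DTT/BSA buffer.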
Potency means the concentration at half of the fitted maximal effect.

COc1ccc2c(c1)C(=O)CC(O)(C(F)F)O2 (stereo unspecified) was tested. Which “activity change, negative = inhibition” value did it give?
The value was inactive: -3.45%.

Cc1ccc(S(=O)(=O)Nc2c(Cl)c(Cl)c(O)c3ccccc23)cc1 was tested. Which Potency did it give?
The Potency was inconclusive: 31.6 µM [inhibitor, single point].

For CN(C(=O)COC(=O)c1nc(Cl)c(Cl)c(Cl)c1Cl)C1CCS(=O)(=O)C1 (stereo unspecified), which Potency is on record?
Its Potency is inconclusive: 31.6 µM [fluorescent, side channel, partial curve].

For N#C/C(=C\c1ccc(-c2cccc([N+](=O)[O-])c2)o1)c1nnc(N2CCOCC2)n1-c1ccccc1, which Potency is on record?
The Potency was inconclusive: 15.8 µM [inhibitor, single point].

With Cc1cc(C)nc(NS(=O)(=O)c2ccc(NC(=O)CN3C(=O)c4ccccc4C3=O)cc2)n1 as the molecule, how does the Potency read?
Its Potency is inconclusive: 15.8 µM [fluorescent, side channel, single point].

Which Potency does the source give for CCOC(=O)c1cnc2ccc(OC)cc2c1NCCc1ccc(OC)c(OC)c1 here?
Its Potency is inconclusive: 3.16 µM [quencher, side channel, full curve, poor fit].

For COc1ccc(OC)c(-c2csc(NC(=O)Cn3[nH]c(=O)c4ccccc4c3=O)n2)c1, which Potency is on record?
The Potency was inconclusive: 39.8 µM [fluorescent, side channel, partial curve].

Cc1nnc(SCc2cccc(Oc3ccccc3)c2)n1N was tested. Which “activity change, negative = inhibition” value did it give?
Its value is inactive: 13.7%.

For CCOC(=O)C1CCN(C(=O)c2cc(COc3ccc(OC)c4ccccc34)on2)CC1, which Potency is on record?
The Potency was inconclusive: 1.58 µM [quencher, side channel, full curve, poor fit].

How did the “activity change, negative = inhibition” value turn out when CC(C)N(CCc1ccncc1)C(=O)Nc1ccc(F)cc1 was run?
The value was inactive: 11.4%.

Which Potency does the source give for O=C(NCc1ccc(F)cc1)C1CCC(CNS(=O)(=O)c2cccs2)CC1 (stereo unspecified) here?
The Potency was inconclusive: 7.08 µM [fluorescent, side channel, full curve, poor fit].

How did the “activity change, negative = inhibition” value turn out when Cc1cccn2c(=O)c3cc(C(=O)NC4CCCCC4)c(=N)n(CCN4CCOCC4)c3nc12 was run?
Its value is inactive: 27.4%.

CCCCN1C(=O)/C(=C2/Sc3ccc(OC)cc3N2CC)SC1=S was tested. Which Potency did it give?
The Potency was inconclusive: 31.6 µM [fluorescent, side channel, partial curve].

Which Potency does the source give for Cc1nc(SCC(=O)Nc2ccc(N3CCOCC3)cc2)nc(C)c1C here?
Its Potency is inconclusive: 70.8 µM [inhibitor, single point].

For CCCCN(C(=O)c1cc(=O)[nH]c2ccccc12)c1c(N)n(CCCC)c(=O)[nH]c1=O, which Potency is on record?
Its Potency is inconclusive: 70.8 µM [fluorescent, side channel, single point].

For COc1cccc(N2C(=O)CC(N3CCc4ccccc43)C2=O)c1 (stereo unspecified), which Potency is on record?
The Potency was inconclusive: 1.58 µM [quencher, side channel, partial curve, poor fit].

How did the Potency turn out when O=C(CN(C(=O)c1csnn1)c1cccc(Cl)c1)NC1CCCC1 was run?
Its Potency is inconclusive: 31.6 µM [fluorescent, side channel, single point].

O=C(CN(c1ccc(Br)cc1)S(=O)(=O)c1ccc(Cl)c([N+](=O)[O-])c1)NCCc1ccccc1 was tested. Which “activity change, negative = inhibition” value did it give?
Its value is inactive: -2.03%.

For Cc1cccc(OCC(=O)N2CCC(c3ccccc3)C2)c1 (stereo unspecified), which Potency is on record?
The Potency was inconclusive: 89.1 µM [quencher, side channel, single point].

How did the Potency turn out when C/C(=N\NC(=O)CC#N)c1cc2ccc(O)cc2oc1=O was run?
The Potency was inconclusive: 8.91 µM [fluorescent, side channel, full curve].

COc1ccc(-c2nc3c4ccccc4ccn3c2C=O)cc1 was tested. Which Potency did it give?
The Potency was inconclusive: 35.5 µM [quencher, side channel, single point].

Which Potency does the source give for CCN(CC)c1ccc2oc(=O)c(C)nc2c1 here?
Its Potency is inconclusive: 35.5 µM [fluorescent, side channel, partial curve].

C=C(C)COc1ccc(-c2ncncc2-c2ccc(Cl)cc2)c(O)c1 was tested. Which Potency did it give?
The Potency was inconclusive: 63.1 µM [fluorescent, side channel, single point].

Which Potency does the source give for COc1ccccc1C(=O)CSc1cccc[n+]1[O-] here?
The Potency was inconclusive: 7.94 µM [fluorescent, side channel, partial curve].

For N#Cc1sc(NCc2ccccc2)nc1Cl, which “activity change, negative = inhibition” value is on record?
The value was inactive: 5.64%.

How did the Potency turn out when CCOC(=O)c1ccccc1NC(=O)C1CC(=O)N(C2CCCCC2)C1 (stereo unspecified) was run?
The Potency was inconclusive: 12.6 µM [fluorescent, side channel, single point].

How did the Potency turn out when COc1ccc(CN2CCNC(=O)C2CC(=O)N(C)Cc2nccs2)cc1OC (stereo unspecified) was run?
The Potency was inconclusive: 79.4 µM [fluorescent, side channel, single point].

N#C/C(=C/c1ccc(N2CCCCC2)o1)C(=O)NCCc1c[nH]c2ccccc12 was tested. Which Potency did it give?
The Potency was inconclusive: 15.8 µM [fluorescent, side channel, partial curve].

CCS(=O)(=O)N1Cc2ccccc2CC1C(=O)Nc1nnc(SCc2ccc(C#N)cc2)s1 (stereo unspecified) was tested. Which Potency did it give?
Its Potency is inconclusive: 70.8 µM [inhibitor, single point].

How did the Potency turn out when O=C(N/N=C/c1c[nH]c2ccccc12)c1ccccc1O was run?
The Potency was inconclusive: 14.1 µM [inhibitor, single point].

With O=C(Cc1cccc2ccccc12)Nc1cc(Cl)ccc1C(=O)O as the molecule, how does the Potency read?
Its Potency is inconclusive: 28.2 µM [inhibitor, partial curve].

With Nc1c(C(=O)Nn2cnnc2)cc([N+](=O)[O-])cc1[N+](=O)[O-] as the molecule, how does the “activity change, negative = inhibition” value read?
Its value is inactive: 1.71%.

For Cc1nnc(-c2ccccc2)c(=O)n1/N=C/c1c(O)ccc2ccccc12, which Potency is on record?
Its Potency is inconclusive: 44.7 µM [fluorescent, side channel, partial curve].

With N#Cc1nc(-c2ccccc2Cl)oc1N1CCCCC1 as the molecule, how does the “activity change, negative = inhibition” value read?
The value was inactive: -8.56%.

With Cc1nn(Cc2ccc(Cl)cc2)c(C)c1NC(=O)C(c1ccccc1)c1ccccc1 as the molecule, how does the Potency read?
The Potency was inconclusive: 10 µM [fluorescent, side channel, single point].

How did the “activity change, negative = inhibition” value turn out when COc1ccc2nc(C)c(C(N)=O)cc2c1 was run?
Its value is inactive: 6.66%.

Which Potency does the source give for OC(CNCc1ccco1)Cn1c2ccc(Br)cc2c2cc(Br)ccc21 (stereo unspecified) here?
The Potency was inconclusive: 22.4 µM [quencher, side channel, partial curve, poor fit].

For O=C1C(=Cc2cccs2)C(=O)c2ccccc21, which Potency is on record?
Its Potency is inconclusive: 31.6 µM [inhibitor, partial curve].

How did the Potency turn out when O=C(CSc1ccccc1C(=O)N1CCCCC1)NCC1CCCCC1 was run?
Its Potency is inconclusive: 11.2 µM [fluorescent, side channel, single point].

How did the Potency turn out when O=C(CCN1C(=O)/C(=C/c2ccc3c(c2)OCO3)SC1=S)Nc1cccc(C(=O)O)c1 was run?
Its Potency is inconclusive: 5.01 µM [inhibitor, full curve].

COc1cc2c(cc1OC)C1O[C@](CCCCN3C(=O)c4ccccc4C3=O)(C2)Oc2c1c(=O)oc1ccc(F)cc21 was tested. Which Potency did it give?
The Potency was inconclusive: 12.6 µM [inhibitor, single point].

With CC(C)(C)c1cc(NC(=O)CSc2nnc(N)s2)n(-c2ccccc2)n1 as the molecule, how does the “activity change, negative = inhibition” value read?
The value was inactive: -8.08%.

O=C(COC(=O)c1ccc(-c2ccc([N+](=O)[O-])cc2)o1)NC(=O)NC1CCCCC1 was tested. Which Potency did it give?
The Potency was inconclusive: 11.2 µM [fluorescent, side channel, full curve].

Cc1ccc(SCC(=O)Nc2ccc(S(=O)(=O)Nc3nccs3)cc2)cc1 was tested. Which “activity change, negative = inhibition” value did it give?
The value was inactive: 0.303%.

How did the Potency turn out when Cc1ncoc1C(=O)Nc1nccs1 was run?
The Potency was inconclusive: 6.31 µM [inhibitor, partial curve].

Which Potency does the source give for O=S(=O)(c1cccc(F)c1)N1CCN(C(=S)NCC2CCCO2)CC1 (stereo unspecified) here?
The Potency was inconclusive: 14.1 µM [quencher, side channel, single point].

For COc1ccc(-c2[nH]ncc2CN2CCN(c3ccc(F)cc3)CC2)cc1, which “activity change, negative = inhibition” value is on record?
The value was inactive: -0.201%.

With Cc1[nH]c2ccccc2c1N=Nc1ccc(F)cc1 as the molecule, how does the “activity change, negative = inhibition” value read?
Its value is inactive: 11.6%.

Which Potency does the source give for Cc1[nH]c2ccccc2c1SCC(=O)NNC(=O)Nc1ccc(OC(F)(F)F)cc1 here?
Its Potency is inconclusive: 1 µM [quencher, side channel, full curve, poor fit].

How did the Potency turn out when COc1ccc(C(=O)N/N=C(\N)c2cc3ccccc3oc2=O)cc1 was run?
The Potency was inconclusive: 31.6 µM [inhibitor, partial curve, poor fit].

Which Potency does the source give for N#CC1=C(N)SC(N)=C(C#N)C1c1cccc(Oc2ccccc2)c1 here?
The Potency was inconclusive: 1.41 µM [fluorescent, side channel, full curve, poor fit].

For Cc1nc2sc(C(N)=O)c(N)c2c(C)c1CC(=O)c1ccccc1, which Potency is on record?
Its Potency is inconclusive: 8.91 µM [inhibitor, single point].

With COc1cc(/C=C(/NC(=O)c2ccccc2Cl)C(=O)O)cc(OC)c1OC as the molecule, how does the “activity change, negative = inhibition” value read?
The value was inactive: 0.369%.

Which Potency does the source give for CC1CCc2sc(C(=O)OC(C)C(=O)Nc3ncc(Cl)cc3Cl)cc2C1 (stereo unspecified) here?
Its Potency is inconclusive: 28.2 µM [fluorescent, side channel, partial curve, poor fit].

For O=C1CN(C(=O)NCC(=O)N[C@@H](C(=O)O)c2ccccc2)c2ccccc2N1, which Potency is on record?
The Potency was inconclusive: 3.16 µM [fluorescent, side channel, full curve, poor fit].

With C#CCNC(=O)C1=C[C@H](C2CCCCC2)C[C@H](OCCCCO)O1 as the molecule, how does the Potency read?
Its Potency is inconclusive: 56.2 µM [inhibitor, single point].

Which “activity change, negative = inhibition” value does the source give for CCCN1C(=O)c2ccccc2NC1c1cc(OC)c(OC)c(OC)c1 (stereo unspecified) here?
Its value is inactive: 6.57%.

With Cc1oc2cc(O)ccc2c(=O)c1-c1cnn(-c2ccccc2)c1 as the molecule, how does the “activity change, negative = inhibition” value read?
Its value is inactive: 2.99%.

For CCOc1ccc(N)c(SSc2cc(OCC)ccc2N)c1, which Potency is on record?
The Potency was inconclusive: 25.1 µM [quencher, side channel, partial curve].

How did the Potency turn out when COc1ccccc1/C=C/C=C1\Oc2c(ccc(O)c2CN2CCN(CCO)CC2)C1=O was run?
Its Potency is inconclusive: 14.1 µM [fluorescent, side channel, partial curve].

Which Potency does the source give for Cc1ccc(NC(=O)COc2ccc(/C=C3/SC(=Nc4ccccc4)N(Cc4cccnc4)C3=O)cc2)cc1 here?
The Potency was inconclusive: 31.6 µM [fluorescent, side channel, partial curve].
